For some assays here: For expression read-outs the peptide stands for its source gene, whose mRNA was measured; the gene is not named for every peptide.

The subject of the first data set is source genes of the peptides (mRNA) in tumors vs normal tissues. As to the kind of experiment: Expression profiling of genes encoding the peptides (Affymetrix microarray). Also noted: species or system human; key: very highly over-expressed in tumors compared to a panel of normal tissues (+++); highly over-expressed in tumors compared to a panel of normal tissues (++); over-expressed in tumors compared to a panel of normal tissues (+). The following applies: HLA-A*02 peptides; tumors compared to a panel of normal tissues.
“12: peptide found in SLC1A4 (gene looked up) (IVDRTTTVV; listed as Homo sapiens) [compound 12]”: the “Gene Expression (expression score of source gene)” value (“Gene Expression” below) is reported as “+”.

The data set is the same for the next values; noted with them: HLA-A*24 peptides; tumors compared to a panel of normal tissues.
Turning to “34: peptide found in MMP1 (gene looked up) (VFMKDGFFYF; listed as Homo sapiens) [compound 34]”, the “Gene Expression” value is “+”.

On to “24: peptide found in MMP12 (gene looked up) (NYPKSIHSF; listed as Homo sapiens) [compound 24]”, for which the “Gene Expression” value is recorded as “+++”.

As to “35: peptide found in ITGA2 (gene looked up) (TYNPEIYVI; listed as Homo sapiens) [compound 35]”, the “Gene Expression” value was “+”.

With “30: peptide found in MMP1 (gene looked up) (KYLEKYYNL; listed as Homo sapiens) [compound 30]”, the “Gene Expression” value is recorded as “+”.

A further data set deals with HLA-A*24-positive lung cancer (NSCLC) samples. As to the kind of experiment: Relative LC-MS quantitation of HLA-A*24 peptide presentation on tumors vs normal tissues. Also noted: species or system human; key: very highly over-presented on tumors compared to a panel of normal tissues (+++); highly over-presented on tumors compared to a panel of normal (healthy) tissues (++); over-presented on tumors compared to a panel of normal tissues (+). Conditions: HLA-A*24 peptides; tumors compared to a panel of normal tissues.
With “RASA2-001 (YYVDKLFNTI; listed as Homo sapiens)”, the “Peptide Presentation (presentation score)” value (“Peptide Presentation” for short) was “+++”.

For the substance “TPS-001 (IYTRVTYYL; listed as Homo sapiens)”, the “Peptide Presentation” value is reported as “+++”.

Regarding “SYLDKVRAL (listed as Homo sapiens) [SEQ ID No. 31]”, the “Peptide Presentation” value is given as “+++”.

With “KFLESKGYEF (listed as Homo sapiens) [SEQ ID No. 45]”, the “Peptide Presentation” value is given as “+++”.

Regarding “TUBGCP3-001 (FYQGIVQQF; listed as Homo sapiens)”, the “Peptide Presentation” value is listed as “+++”.

“PVRL1-001 (IYNPSMGVSVL; listed as Homo sapiens)”: the “Peptide Presentation” value is given as “+++”.

Regarding “RBPJ-001 (RYLHVEGGNF; listed as Homo sapiens)”, the “Peptide Presentation” value is given as “+++”.

In the case of “TRPM2-001 (VYHSYLTIF; listed as Homo sapiens)”, the “Peptide Presentation” value is given as “+++”.

As to “DDX5-007 (NYTNGSFGSNF; listed as Homo sapiens)”, the “Peptide Presentation” value is reported as “+++”.

With “PPTC-001 (HYFNTPFQL; listed as Homo sapiens)”, the “Peptide Presentation” value is “+++”.

As to “OLFML2B-002 (YYYGNTLVEF; listed as Homo sapiens)”, the “Peptide Presentation” value is on record as “+++”.

On to “HSPBP-001 (RYLEAGAAGLRW; listed as Homo sapiens)”, for which the “Peptide Presentation” value is “+++”.

In the case of “SAMD9L-001 (IYQRWKDLL; listed as Homo sapiens)”, the “Peptide Presentation” value is “+++”.

“FAM83A-001 (PFLQASPHF; listed as Homo sapiens)”: the “Peptide Presentation” value is recorded as “+++”.

Take “VFMKDGFFYF (listed as Homo sapiens) [SEQ ID No. 34]”: the “Peptide Presentation” value is recorded as “+++”.

Take “ABCC1-001 (VYVTIDENNIL; listed as Homo sapiens)”: the “Peptide Presentation” value is “+++”.

As to “MREG-001 (RYLFVVDRL; listed as Homo sapiens)”, the “Peptide Presentation” value is on record as “+++”.

With “COLEC12-001 (IYAGQWNDF; listed as Homo sapiens)”, the “Peptide Presentation” value was “+++”.

On to “XPR-001 (VYPLALYGF; listed as Homo sapiens)”, for which the “Peptide Presentation” value was “+++”.

Take “AIFM2-001: peptide found in AIFM2 (gene looked up) (AYKPGALTF; listed as Homo sapiens)”: the “Peptide Presentation” value is “+++”.

For “RYISPDQLADL (listed as Homo sapiens) [SEQ ID No. 47]”, the “Peptide Presentation” value is recorded as “+++”.

As to “AHD-001 (EYSDVLAKLAF; listed as Homo sapiens)”, the “Peptide Presentation” value is reported as “+++”.

In the case of “NYLLESPHRF (listed as Homo sapiens) [SEQ ID No. 51]”, the “Peptide Presentation” value is reported as “+++”.

Turning to “SP14-001 (AYPDLNEIYRSF; listed as Homo sapiens)”, the “Peptide Presentation” value was “+++”.

Turning to “SMPDL3B-001 (IYNQIAELW; listed as Homo sapiens)”, the “Peptide Presentation” value is listed as “+++”.

Take “C6orf132-001 (RYGSPINTF; listed as Homo sapiens) [Peptide C6orf132-001]”: the “Peptide Presentation” value was “+++”.

Regarding “KFLEHTNFEF (listed as Homo sapiens) [SEQ ID No. 39]”, the “Peptide Presentation” value is reported as “+++”.

Take “DCSTA-001 (KYIEAIQWI; listed as Homo sapiens)”: the “Peptide Presentation” value is “+++”.

With “LAPTM5-001 (SYMEVPTYLNF; listed as Homo sapiens)”, the “Peptide Presentation” value was “+++”.

Consider “TRIM11-001 (IFLDYEAGHLSF; listed as Homo sapiens)”, for which the “Peptide Presentation” value is recorded as “+++”.

In the case of “IQGAP1-001 (TYAALNSKATF; listed as Homo sapiens)”, the “Peptide Presentation” value was “+++”.

Take “ABCA13-003 (EYLPEFLHTF; listed as Homo sapiens)”: the “Peptide Presentation” value is “+++”.

For “NUP153-001 (VYFKPSLTPSGEF; listed as Homo sapiens)”, the “Peptide Presentation” value was “+++”.

For the substance “KLRD-001 (QYLFPSFETF; listed as Homo sapiens)”, the “Peptide Presentation” value is “+++”.

Turning to “PSMA4-001 (LYIGWDKHYGF; listed as Homo sapiens)”, the “Peptide Presentation” value is recorded as “+++”.

For “ZNF697-001 (TYLTNHLRL; listed as Homo sapiens)”, the “Peptide Presentation” value is recorded as “+++”.

Consider “RYLDSLKAIVF (listed as Homo sapiens) [SEQ ID No. 28]”, for which the “Peptide Presentation” value is listed as “+++”.

For the substance “RYTLHINTL (listed as Homo sapiens) [SEQ ID No. 43]”, the “Peptide Presentation” value is on record as “+++”.

For “SLC-003 (RYFPTQALNF; listed as Homo sapiens)”, the “Peptide Presentation” value was “+++”.

For the substance “IYPVKYTQTF (listed as Homo sapiens) [SEQ ID No. 55]”, the “Peptide Presentation” value is “+++”.

Turning to “GLS-001 (DYIPQLAKF; listed as Homo sapiens)”, the “Peptide Presentation” value is “+++”.

With “COL12A1-003 (SYSIGIANF; listed as Homo sapiens)”, the “Peptide Presentation” value is “+++”.

For “DYR-001 (VYTZIQSRF; listed as Homo sapiens)”, the “Peptide Presentation” value is “+++”.

Consider “ZBED5-001 (AYKDKDISFF; listed as Homo sapiens)”, for which the “Peptide Presentation” value is “+++”.

As to “SYPAKLSFI (listed as Homo sapiens) [SEQ ID No. 60]”, the “Peptide Presentation” value is “+++”.

Regarding “G2E-002 (LYINKANIW; listed as Homo sapiens) [Peptide G2E-002]”, the “Peptide Presentation” value is listed as “+++”.

Another data set has the same test system. The data set is described as above. Also noted: species or system human. Conditions: HLA-A*24 peptides, amendment of Table 10.
Take “72 (YYVDKLFNTI; listed as Homo sapiens) [compound 72]”: the “Additional Entities (additional tumor types showing over-presentation)” value is recorded as “Brain Cancer”.

The data set is the same for the next values; noted with them: HLA-A*24 peptides; over-presented on >5% of measured tumor samples, or presented on >5% with ratio of geometric means tumor vs normal >3.
Consider “73 (RYLHVEGGNF; listed as Homo sapiens) [compound 73]”, for which the “Other relevant organs/diseases (additional tumor types on which the peptide was found)” value (“Other relevant organs/diseases” for short) is given as “Brain, Liver”.

Take “85 (PFLQASPHF; listed as Homo sapiens) [compound 85]”: the “Other relevant organs/diseases” value is listed as “Stomach”.

For the substance “52 (SYMEVPTYLNF; listed as Homo sapiens) [compound 52]”, the “Other relevant organs/diseases” value was “Liver”.

For “37 (RYLEYFEKI; listed as Homo sapiens) [compound 37]”, the “Other relevant organs/diseases” value is “Brain, Liver, Prostate”.

“63 (LYINKANIW; listed as Homo sapiens) [compound 63]”: the “Other relevant organs/diseases” value was “Stomach, Liver”.

For “72 (YYVDKLFNTI; listed as Homo sapiens) [compound 72]”, the “Other relevant organs/diseases” value was “Liver, Prostate”.

Take “51 (NYLLESPHRF; listed as Homo sapiens) [compound 51]”: the “Other relevant organs/diseases” value is “Liver”.

For “82 (FYQGIVQQF; listed as Homo sapiens) [compound 82]”, the “Other relevant organs/diseases” value is listed as “Brain, Liver, Prostate”.

Take “70 (VYHSYLTIF; listed as Homo sapiens) [compound 70]”: the “Other relevant organs/diseases” value is “Brain, Liver”.

As to “58 (VYFKPSLTPSGEF; listed as Homo sapiens) [compound 58]”, the “Other relevant organs/diseases” value is listed as “Stomach, Liver”.

As to “160 (SYLQAANAL; listed as Homo sapiens) [compound 160]”, the “Other relevant organs/diseases” value is “Stomach”.

Consider “62: peptide found in AIFM2 (gene looked up) (AYKPGALTF; listed as Homo sapiens) [compound 62]”, for which the “Other relevant organs/diseases” value is on record as “Liver”.

As to “50 (LYIGWDKHYGF; listed as Homo sapiens) [compound 50]”, the “Other relevant organs/diseases” value was “Kidney, Stomach, Liver”.

Source of the values: patent publication US10526389B2, “Peptides and combinations of peptides for use in immunotherapy against lung cancer, including NSCLC and other cancers” (Immatics Biotechnologies GmbH, priority 2015, dated 2020).
